From the supplement of paper PMC8728848
This is one part of the list.

Columns and labels:
Experiment in all cases: glycan array binding signal (z-score within array); higher = stronger binding
Conditions in all cases: glycan notation: IUPAC condensed, linker removed
[1] = target: Neu5Ac(a2-3)Gal(b1-3)GalNAc
Outline: (§1)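 The binding signal is a Z-score computed within each array and averaged over linkers. Arrays of the same protein sequence at different concentrations or buffers were also averaged together. Data originate from 3228 arrays in the Consortium for Functional Glycomics database, kept only where the protein sequence was available.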

[2] = target: Neu5Ac(a2-3)Gal(b1-3)GalNAc(b1-3)Gal(a1-4)Gal(b1-4)Glc
Outline: as §1

[3] = target: Neu5Ac(a2-3)Gal(b1-3)GalNAc(b1-4)Gal(b1-4)Glc
Outline: as §1

[4] = target: Neu5Ac(a2-3)Gal(b1-3)GalNAc(b1-4)[Neu5Ac(a2-3)]Gal(b1-4)Glc
Outline: as §1

[5] = target: Neu5Ac(a2-3)Gal(b1-3)GalNAc(b1-4)[Neu5Ac(a2-8)Neu5Ac(a2-3)]Gal(b1-4)Glc
Outline: as §1

[6] = target: Neu5Ac(a2-3)Gal(b1-3)GalNAc6S
Outline: as §1

[7] = target: Neu5Ac(a2-3)Gal(b1-3)GlcNAc
Outline: as §1

[8] = target: Neu5Ac(a2-3)Gal(b1-3)GlcNAc(b1-2)Man
Outline: as §1

[9] = target: Neu5Ac(a2-3)Gal(b1-3)GlcNAc(b1-2)Man(a1-3)[GlcNAc(b1-4)][Neu5Ac(a2-3)Gal(b1-3)GlcNAc(b1-2)Man(a1-6)]Man(b1-4)GlcNAc(b1-4)GlcNAc
Outline: as §1

[10] = target: Neu5Ac(a2-3)Gal(b1-3)GlcNAc(b1-2)Man(a1-3)[Neu5Ac(a2-3)Gal(b1-3)GlcNAc(b1-2)Man(a1-6)]Man(b1-4)GlcNAc(b1-4)GlcNAc
Outline: as §1

[11] = target: Neu5Ac(a2-3)Gal(b1-3)GlcNAc(b1-2)[Neu5Ac(a2-3)Gal(b1-3)GlcNAc(b1-4)]Man(a1-6)[Neu5Ac(a2-3)Gal(b1-3)GlcNAc(b1-2)Man(a1-3)]Man(b1-4)GlcNAc(b1-4)GlcNAc
Outline: as §1

[12] = target: Neu5Ac(a2-3)Gal(b1-3)GlcNAc(b1-3)Gal(b1-3)GlcNAc
Outline: as §1

[13] = target: Neu5Ac(a2-3)Gal(b1-3)GlcNAc(b1-3)Gal(b1-4)GlcNAc
Outline: as §1

[14] = target: Neu5Ac(a2-3)Gal(b1-3)GlcNAc(b1-3)GalNAc
Outline: as §1

[15] = target: Neu5Ac(a2-3)Gal(b1-3)GlcNAc(b1-6)GalNAc
Outline: as §1

[16] = target: Neu5Ac(a2-3)Gal(b1-3)GlcNAc6S
Outline: as §1

[17] = target: Neu5Ac(a2-3)Gal(b1-3)[Fuc(a1-4)]GlcNAc
Outline: as §1

[18] = target: Neu5Ac(a2-3)Gal(b1-3)[Fuc(a1-4)]GlcNAc(b1-3)Gal(b1-3)[Fuc(a1-4)]GlcNAc
Outline: as §1

[19] = target: Neu5Ac(a2-3)Gal(b1-3)[Fuc(a1-4)]GlcNAc(b1-3)Gal(b1-4)[Fuc(a1-3)]GlcNAc
Outline: as §1

[20] = target: Neu5Ac(a2-3)Gal(b1-3)[GlcNAc(b1-6)]GalNAc
Outline: as §1

[21] = target: Neu5Ac(a2-3)Gal(b1-3)[Neu5Ac(a2-6)]GalNAc
Outline: as §1

[22] = target: Neu5Ac(a2-3)Gal(b1-3)[Neu5Ac(a2-6)]GlcNAc(b1-3)[Fuc(a1-3)[Gal(b1-4)]GlcNAc(b1-6)]Gal(b1-4)Glc
Outline: as §1

[23] = target: Neu5Ac(a2-3)Gal(b1-3)]Neu5Ac(a2-3)Gal(b1-4)]GlcNAc
Outline: as §1

Neu5Ac(a2-3)Gal(b1-4)Glc = target: Neu5Ac(a2-3)Gal(b1-4)Glc
Outline: as §1

[24] = target: Neu5Ac(a2-3)Gal(b1-4)GlcNAc
Outline: as §1

[25] = target: Neu5Ac(a2-3)Gal(b1-4)GlcNAc(b1-2)Man
Outline: as §1

[26] = target: Neu5Ac(a2-3)Gal(b1-4)GlcNAc(b1-2)Man(a1-3)[GlcNAc(b1-4)][Neu5Ac(a2-3)Gal(b1-4)GlcNAc(b1-2)Man(a1-6)]Man(b1-4)GlcNAc(b1-4)GlcNAc
Outline: as §1

[27] = target: Neu5Ac(a2-3)Gal(b1-4)GlcNAc(b1-2)Man(a1-3)[Neu5Ac(a2-3)Gal(b1-4)GlcNAc(b1-2)Man(a1-6)]Man(b1-4)GlcNAc(b1-4)GlcNAc
Outline: as §1

[28] = target: Neu5Ac(a2-3)Gal(b1-4)GlcNAc(b1-2)Man(a1-3)[Neu5Ac(a2-3)Gal(b1-4)GlcNAc(b1-2)Man(a1-6)]Man(b1-4)GlcNAc(b1-4)[Fuc(a1-6)]GlcNAc
Outline: as §1

[29] = target: Neu5Ac(a2-3)Gal(b1-4)GlcNAc(b1-2)Man(a1-3)[Neu5Ac(a2-6)Gal(b1-4)GlcNAc(b1-2)Man(a1-6)]Man(b1-4)GlcNAc(b1-4)GlcNAc
Outline: as §1

[30] = target: Neu5Ac(a2-3)Gal(b1-4)GlcNAc(b1-2)[Neu5Ac(a2-3)Gal(b1-4)GlcNAc(b1-4)]Man(a1-3)[GlcNAc(b1-4)][Neu5Ac(a2-3)Gal(b1-4)GlcNAc(b1-2)[Neu5Ac(a2-3)Gal(b1-4)GlcNAc(b1-6)]Man(a1-6)]Man(b1-4)GlcNAc(b1-4)GlcNAc
Outline: as §1

[31] = target: Neu5Ac(a2-3)Gal(b1-4)GlcNAc(b1-2)[Neu5Ac(a2-3)Gal(b1-4)GlcNAc(b1-4)]Man(a1-3)[GlcNAc(b1-4)][Neu5Ac(a2-3)Gal(b1-4)GlcNAc(b1-4)Man(a1-6)]Man(b1-4)GlcNAc(b1-4)GlcNAc
Outline: as §1

[32] = target: Neu5Ac(a2-3)Gal(b1-4)GlcNAc(b1-2)[Neu5Ac(a2-3)Gal(b1-4)GlcNAc(b1-6)]Man(a1-6)[Neu5Ac(a2-3)Gal(b1-4)GlcNAc(b1-2)Man(a1-3)][GlcNAc(b1-4)]Man(b1-4)GlcNAc(b1-4)GlcNAc
Outline: as §1

[33] = target: Neu5Ac(a2-3)Gal(b1-4)GlcNAc(b1-3)Gal
Outline: as §1

[34] = target: Neu5Ac(a2-3)Gal(b1-4)GlcNAc(b1-3)Gal(b1-3)GlcNAc
Outline: as §1

[35] = target: Neu5Ac(a2-3)Gal(b1-4)GlcNAc(b1-3)Gal(b1-4)GlcNAc
Outline: as §1

[36] = target: Neu5Ac(a2-3)Gal(b1-4)GlcNAc(b1-3)Gal(b1-4)GlcNAc(b1-2)Man(a1-3)[Neu5Ac(a2-3)Gal(b1-4)GlcNAc(b1-3)Gal(b1-4)GlcNAc(b1-2)Man(a1-6)]Man(b1-4)GlcNAc(b1-4)GlcNAc
Outline: as §1

[37] = target: Neu5Ac(a2-3)Gal(b1-4)GlcNAc(b1-3)Gal(b1-4)GlcNAc(b1-3)Gal(b1-4)GlcNAc
Outline: as §1

[38] = target: Neu5Ac(a2-3)Gal(b1-4)GlcNAc(b1-3)Gal(b1-4)GlcNAc(b1-3)Gal(b1-4)GlcNAc(b1-2)Man(a1-3)[Neu5Ac(a2-3)Gal(b1-4)GlcNAc(b1-3)Gal(b1-4)GlcNAc(b1-3)Gal(b1-4)GlcNAc(b1-2)Man(a1-6)]GalNAc
Outline: as §1

[39] = target: Neu5Ac(a2-3)Gal(b1-4)GlcNAc(b1-3)Gal(b1-4)GlcNAc(b1-3)GalNAc
Outline: as §1

[40] = target: Neu5Ac(a2-3)Gal(b1-4)GlcNAc(b1-3)Gal(b1-4)GlcNAc(b1-3)[Neu5Ac(a2-3)Gal(b1-4)GlcNAc(b1-3)Gal(b1-4)GlcNAc(b1-6)]GalNAc
Outline: as §1

[41] = target: Neu5Ac(a2-3)Gal(b1-4)GlcNAc(b1-3)Gal(b1-4)GlcNAc(b1-6)[Gal(b1-3)]GalNAc
Outline: as §1

[42] = target: Neu5Ac(a2-3)Gal(b1-4)GlcNAc(b1-3)Gal(b1-4)[Fuc(a1-3)]GlcNAc
Outline: as §1

[43] = target: Neu5Ac(a2-3)Gal(b1-4)GlcNAc(b1-3)GalNAc
Outline: as §1

[44] = target: Neu5Ac(a2-3)Gal(b1-4)GlcNAc(b1-3)[Neu5Ac(a2-3)Gal(b1-4)GlcNAc(b1-6)]GalNAc
Outline: as §1

B1: OS9 (Arabidopsis thaliana) (protein)
chain: MRGSHHHHHHGMASMTGGQQMGRDLYDDDDKSRLQIFPAHLVGTFSRNNREPKYKIEFLPEDSPFHPGDNLESMVMLDKHGNRFLCYLPKEEKATSGWTSSQQNISTVMMETQQLVKLKTPDELLQPLSEKCLFRQEGWWSYEFCHQKYVRQLHVEDENKIVQEFFLGTFDPEATAAFNQTVSDASTDASQRYHSHVYTNGTTCDLTGSPREVEVRFVCAETRAMVTSITELSTCKYALTVQCPTLCKHPLFQLEKPVSHTIHCNAIPVEEDATRNKEEQAVDESPKMIADS
- glycan array binding signal (z-score) [1]: -0.107
- glycan array binding signal (z-score) [2]: -0.037
- glycan array binding signal (z-score) [3]: -1.9
- glycan array binding signal (z-score) [4]: -0.741
- glycan array binding signal (z-score) [5]: -0.334
- glycan array binding signal (z-score) [6]: -0.934
- glycan array binding signal (z-score) [7]: -0.018
- glycan array binding signal (z-score) [8]: 0.959
- glycan array binding signal (z-score) [9]: -0.217
- glycan array binding signal (z-score) [10]: -0.881
- glycan array binding signal (z-score) [11]: -1.29
- glycan array binding signal (z-score) [12]: -0.798
- glycan array binding signal (z-score) [13]: 0.479
- glycan array binding signal (z-score) [14]: 0.474
- glycan array binding signal (z-score) [15]: 0.504
- glycan array binding signal (z-score) [16]: -0.171
- glycan array binding signal (z-score) [17]: -0.289
- glycan array binding signal (z-score) [18]: 2
- glycan array binding signal (z-score) [19]: 1.08
- glycan array binding signal (z-score) [20]: 1.3
- glycan array binding signal (z-score) [21]: -0.173
- glycan array binding signal (z-score) [22]: -0.879
- glycan array binding signal (z-score) [23]: -1.09
- glycan array binding signal (z-score) (Neu5Ac(a2-3)Gal(b1-4)Glc): 0.386
- glycan array binding signal (z-score) [24]: 0.28
- glycan array binding signal (z-score) [25]: 0.588
- glycan array binding signal (z-score) [26]: 0.725
- glycan array binding signal (z-score) [27]: 1.24
- glycan array binding signal (z-score) [28]: -0.563
- glycan array binding signal (z-score) [29]: 0.387
- glycan array binding signal (z-score) [30]: 1.26
- glycan array binding signal (z-score) [31]: -0.879
- glycan array binding signal (z-score) [32]: -0.513
- glycan array binding signal (z-score) [33]: -0.825
- glycan array binding signal (z-score) [34]: -0.233
- glycan array binding signal (z-score) [35]: 1.85
- glycan array binding signal (z-score) [36]: -0.58
- glycan array binding signal (z-score) [37]: 0.726
- glycan array binding signal (z-score) [38]: -0.723
- glycan array binding signal (z-score) [39]: -1.03
- glycan array binding signal (z-score) [40]: -0.357
- glycan array binding signal (z-score) [41]: -0.084
- glycan array binding signal (z-score) [42]: 0.952
- glycan array binding signal (z-score) [43]: 1.69
- glycan array binding signal (z-score) [44]: 0.13
